In patent US20160326257A1 (PIERRE FABRE MEDICAMENT, published 2016):
Results are given in words; binding and its absence hold for the method and conditions named. Some entries that bind do so weakly or less than the wild type.

By UniProt entry, the sequences of proteins in these tests, tags left out. Where a name states a change or a piece, a line headed by the entry shows the natural chain unless it says otherwise.
UniProt P78536: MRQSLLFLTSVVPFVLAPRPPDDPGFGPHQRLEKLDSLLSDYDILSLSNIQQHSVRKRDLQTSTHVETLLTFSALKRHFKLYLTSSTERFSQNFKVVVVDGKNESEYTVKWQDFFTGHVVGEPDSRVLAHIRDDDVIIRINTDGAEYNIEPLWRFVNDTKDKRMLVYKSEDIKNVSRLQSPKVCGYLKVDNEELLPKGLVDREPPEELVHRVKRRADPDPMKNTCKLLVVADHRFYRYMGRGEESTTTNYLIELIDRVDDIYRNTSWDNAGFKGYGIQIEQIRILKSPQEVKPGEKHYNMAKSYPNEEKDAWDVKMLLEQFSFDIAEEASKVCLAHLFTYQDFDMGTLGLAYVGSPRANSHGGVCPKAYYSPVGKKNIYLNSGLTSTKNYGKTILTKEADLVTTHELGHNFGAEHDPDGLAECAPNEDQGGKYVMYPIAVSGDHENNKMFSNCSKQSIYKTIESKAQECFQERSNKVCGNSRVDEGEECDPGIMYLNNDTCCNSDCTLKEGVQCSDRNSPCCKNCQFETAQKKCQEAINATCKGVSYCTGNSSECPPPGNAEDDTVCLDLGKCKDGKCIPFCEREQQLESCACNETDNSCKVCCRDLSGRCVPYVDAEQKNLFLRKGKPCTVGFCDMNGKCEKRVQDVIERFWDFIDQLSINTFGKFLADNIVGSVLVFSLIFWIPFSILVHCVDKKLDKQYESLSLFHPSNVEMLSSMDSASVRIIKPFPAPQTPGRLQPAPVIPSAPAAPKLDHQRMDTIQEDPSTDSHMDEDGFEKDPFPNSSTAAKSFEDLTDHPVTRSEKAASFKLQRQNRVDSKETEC

Legend:
[1] = target: H1-671 (P-C-D-MPD) human ADAM17 human Fc fusion (human) (UniProt P78536); experiment: Western blot, non-reducing SDS-PAGE, 1 µg/ml m1022C3
[2] = target: H457-671 (D-MPD) human ADAM17 human Fc fusion (human) (UniProt P78536); experiment: as above
[3] = target: H1-671 (P-C-D-MPD) human ADAM17 human Fc fusion (human) (UniProt P78536); experiment: SPR Biacore X100, m1022C3 captured on anti-mouse antibody, construct at 250 nM
[4] = target: H457-671 (D-MPD) human ADAM17 human Fc fusion (human) (UniProt P78536); experiment: as above

Measured: binding

B1: m1022C3 (murine anti-ADAM17 monoclonal antibody 1022C3, hybridoma I-4686) (antibody, V domains shown)
VH: QVTLKESGPGILQPSQTLSLTCSFSGFSLNTSGMGVSWIRQPSGKGLEWLAHIYWDDDKRYNPSLKSRLTISKDTSSNQVFLKITSLDTADTATYYCARRSHFGNYYYAMDYWGQGTSVTVTS
VL: DVQMTQTTSSLSASLGDRVTISCRASQDISSYLNWYQQKPDGTFKLLIFYTSRLQSGVPSKYSGSGSGTDYSLTISNLEQEDIAAYFCQQGKTLPLTFGAGTKLELK
modifications: N-glycosylated asparagine in CDR-H1
notes: Murine antibody from a hybridoma; also called mAb 1022C3; mAb m1022C3
binds: all assays above
